Test results from PubChem BioAssay AID248 (DTP/NCI, 2004).
The list is a part of this screen's results and no random one: it gathers tests that were run many times, whatever their T/C, doses with no T/C, and many T/C values between a quarter and a half above the control. Other doses and runs of a compound stand elsewhere. T/C gives the treated animals as a percentage of the vehicle group. Some entries give survivors of the animals treated and no T/C: the source files T/C as zero there, which appears to mark a toxic dose or a test without result, not a measured value. Some doses without a T/C left all or most animals alive at the check, yet need not have been tolerated: the source hardly ever lists a survival T/C far under the control, and the zero likely stands for such cases as well. Survivors were counted at the toxicity check, usually on the fifth day, unless a day is given; later deaths do not show. Schedules are NCI's codes, read here as Q, the interval in days (D) or hours (H), X, the number of doses. Some schedule codes hold Z or #, which are not explained here. Some molecules as drawn cover several salts, stereoisomers or complexes of the source; a dose is that of the sample tested. Some entries were tested several times; the values are given in rising order. Where survival is the endpoint, the PubChem record calls one and a half times the control and up active, and a quarter to a half above the control has no call in these data; cut-offs in other NCI protocols can differ. Some T/C values carry the count of animals alive at the toxicity check (mostly the fifth day); without a count, all were alive then.

Test system: L1210 leukemia ip in BDF1 mice, survival T/C
Experiment: NCI In Vivo Anticancer Drug Screen. Data for tumor model L1210 Leukemia (intraperitoneal) in B6D2F1 (BDF1) mice
Conditions: T/C endpoint: mean survival time, higher T/C = longer survival
[1] = dose: 50.0 mg/kg/injection, schedule: Q01DX001 (ip), vehicle: carboxymethylcellulose (CMC)
[2] = dose: 200.0 mg/kg/injection, schedule: Q01DX009 (ip), vehicle: Klucel (hydroxypropylcellulose) (HPC)
[3] = dose: 400.0 mg/kg/injection, schedule: Q04DX003 (ip), vehicle: Klucel (hydroxypropylcellulose) (HPC)
[4] = dose: 100.0 mg/kg/injection, schedule: Q04DX003 (ip), vehicle: saline with Tween-80
[5] = dose: 200.0 mg/kg/injection, schedule: Q04DX003 (ip), vehicle: saline with Tween-80
[6] = dose: 400.0 mg/kg/injection, schedule: Q04DX003 (ip), vehicle: saline with Tween-80
[7] = dose: 400.0 mg/kg/injection, schedule: Q04DX002 (ip), vehicle: saline with Tween-80
[8] = dose: 300.0 mg/kg/injection, schedule: Q01DX009 (ip), vehicle: saline with Tween-80
[9] = dose: 100.0 mg/kg/injection, schedule: Q04DX003 (ip), vehicle: Klucel (hydroxypropylcellulose) (HPC)
[10] = dose: 400.0 mg/kg/injection, schedule: Q01DX001 (ip), vehicle: carboxymethylcellulose (CMC)
[11] = dose: 200.0 mg/kg/injection, schedule: Q01DX001 (ip), vehicle: carboxymethylcellulose (CMC)
[12] = dose: 300.0 mg/kg/injection, schedule: Q01DX001 (ip), vehicle: saline

SMILES: O=CN(O)CC(=O)O.[Ni]
- survivor count (dose: 25.0 mg/kg/injection, schedule: Q01DX009 (ip), vehicle: saline): 3 of 6

SMILES: Cc1c(-c2ccc(Cl)cc2)nc2cc(Cl)ccc2c1C(=O)O
- survivor count (dose: 400.0 mg/kg/injection, schedule: Q01DX009 (ip), vehicle: saline): 1 of 3

SMILES: Cn1c(=O)c2c(nc(C3CC4C5CCC(C5)C4C3)n2C)n(C)c1=O (stereo unspecified)
- survivor count [1]: 4 of 4

SMILES: CCC1(O)CC2c3ccccc3CCN2CC1CC(C)C (stereo unspecified)
- survivor count [2]: 0 of 6
- survivor count [3]: 0 of 4

SMILES: CN1CCC(CO)(c2ccccc2)C1 (stereo unspecified)
- survivor count (dose: 300.0 mg/kg/injection, schedule: Q01DX001 (ip), vehicle: carboxymethylcellulose (CMC)): 0 of 6

SMILES: CC(=O)C[N+]12CN3CN(CN(C3)C1)C2
- survivor count (dose: 200.0 mg/kg/injection, schedule: Q01DX005 (ip), vehicle: saline): 1 of 3
- survivor count (dose: 400.0 mg/kg/injection, schedule: Q04DX002 (ip), vehicle: saline): 0 of 3

SMILES: CCCCCCCCCC[P+](=O)CCCCCCCCCC
- survivor count [4]: 6 of 6

SMILES: O=C1NC2CCC(NC(=O)N1c1ccccc1)C1=C2C1
- survivor count (dose: 25.0 mg/kg/injection, schedule: Q04DX003 (ip), vehicle: saline with Tween-80): 5 of 6
- survivor count [4]: 3 of 6
- survivor count [5]: 0 of 6
- survivor count [6]: 0 of 6

SMILES: NC(CSSCC(N)=NCC12CC3CC(CC(C3)C1)C2)=NCC12CC3CC(CC(C3)C1)C2
- survivor count [7]: 0 of 3

SMILES: O=C(c1ccccc1)N(CCCl)C(=O)N(CCCl)C(=O)c1ccccc1
- survivor count [8]: 6 of 6

SMILES: Nc1cc(S(=O)O)c2cccnc2c1O
- survivor count [3]: 5 of 6

SMILES: Cc1ccc(S(=O)(=O)N(Cl)Cl)cc1
- survivor count (dose: 12.5 mg/kg/injection, schedule: Q01DX009 (ip), vehicle: Klucel (hydroxypropylcellulose) (HPC)): 6 of 6
- survivor count (dose: 50.0 mg/kg/injection, schedule: Q04DX003 (ip), vehicle: Klucel (hydroxypropylcellulose) (HPC)): 1 of 6
- survivor count [9]: 0 of 6
- survivor count (dose: 200.0 mg/kg/injection, schedule: Q04DX003 (ip), vehicle: Klucel (hydroxypropylcellulose) (HPC)): 0 of 6
- survivor count [3]: 2 of 6

SMILES: CS(=O)(=O)O/C=C(\C#N)C(=O)O
- survivor count [10]: 0 of 6

SMILES: CCOc1c[n+](C)c(/C=C/c2ccccc2)s1
- survivor count [1]: 0 of 4
- survivor count (dose: 80.0 mg/kg/injection, schedule: Q01DX001 (ip), vehicle: carboxymethylcellulose (CMC)): 0 of 4
- survivor count (dose: 100.0 mg/kg/injection, schedule: Q01DX001 (ip), vehicle: carboxymethylcellulose (CMC)): 2 of 4
- survivor count [11]: 0 of 4
- survivor count [10]: 0 of 4

SMILES: C[C@H](OC(=O)CCl)[C@@H](C)OC(=O)CCl
- survivor count (dose: 200.0 mg/kg/injection, schedule: Q01DX001 (sc), vehicle: carboxymethylcellulose (CMC)): 0 of 4
- survivor count (dose: 400.0 mg/kg/injection, schedule: Q01DX001 (sc), vehicle: carboxymethylcellulose (CMC)): 0 of 4

SMILES: CCN(CC)c1ccc(Cc2cc(O)c3c(c2O)C(=O)c2ccccc2C3=O)cc1
- survivor count [2]: 3 of 3

SMILES: Cc1nc(CCl)no1
- survivor count [7]: 1 of 3

SMILES: CCC1(O)CC(OC2CC(N(C)C)C(OC3CC(O)C(O)C(C)O3)C(C)O2)c2c(cc3c(c2O)C(=O)c2c(O)ccc(O)c2C3=O)C1C(=O)OC (stereo unspecified)
- T/C (dose: 12.8 mg/kg/injection, schedule: Q01DX001 (ip), vehicle: saline): 135 % of control
- T/C (dose: 25.6 mg/kg/injection, schedule: Q01DX001 (ip), vehicle: saline): 139 % of control
- T/C (dose: 51.2 mg/kg/injection, schedule: Q01DX001 (ip), vehicle: saline): 129 % of control [5 of 6 alive]

SMILES: O=CNc1ccc(Cl)cc1
- survivor count [9]: 6 of 6
- survivor count [3]: 6 of 6

SMILES: Cc1ccc(Cl)cc1NC(=O)Nc1cccc2ccc(O)cc12
- survivor count [5]: 6 of 6

SMILES: CC(Br)C(=O)Nc1ccc(C(=O)O)c(O)c1 (stereo unspecified)
- survivor count (dose: 200.0 mg/kg/injection, schedule: Q01DX009 (ip), vehicle: saline with Tween-80): 2 of 6
- survivor count (dose: 400.0 mg/kg/injection, schedule: Q01DX009 (ip), vehicle: saline with Tween-80): 0 of 6

SMILES: Nn1cnc2c(SCc3ccccc3)ncnc21
- T/C (dose: 210.0 mg/kg/injection, schedule: Q01DX015 (ip), vehicle: carboxymethylcellulose (CMC)): 136 % of control
- survivor count [10]: 0 of 4

SMILES: C[Si](C)(C)Oc1cc(N=NNC2=CC(=O)c3ccccc3C2=O)c(O)c2ccccc12
- survivor count [4]: 6 of 6
- survivor count [5]: 6 of 6

SMILES: O=C(Nc1ccc(C2=NCCN2)cc1)c1cccc(C(=O)Nc2ccc(C3=NCCN3)cc2)c1
- T/C (dose: 3.75 mg/kg/injection, schedule: Q01DX Z (ip), vehicle: methylcellulose (MC)): 147 % of control
- T/C (dose: 3.75 mg/kg/injection, schedule: Q01DX Z (ip), vehicle: saline): 128 % of control
- T/C (dose: 7.5 mg/kg/injection, schedule: Q01DX009 (ip), vehicle: saline): 144 % of control
- T/C (dose: 7.5 mg/kg/injection, schedule: Q01DX Z (ip), vehicle: saline): 144 % of control
- T/C (dose: 8.0 mg/kg/injection, schedule: Q01DX010 (ip), vehicle: saline): 136 % of control
- T/C (dose: 14.0 mg/kg/injection, schedule: Q07DX Z (ip), vehicle: methylcellulose (MC)): 126 % of control
- T/C (dose: 16.0 mg/kg/injection, schedule: Q01DX Z (sc), vehicle: methylcellulose (MC)): 134 % of control
- survivor count (dose: 20.0 mg/kg/injection, schedule: Q01DX Z (iv), vehicle: other): 1 of 7 and 3 of 7
- T/C (dose: 64.0 mg/kg/injection, schedule: Q01DX Z (ip), vehicle: methylcellulose (MC)): 137 % of control
- T/C (dose: 120.0 mg/kg/injection, schedule: Q01DX009 (ip), vehicle: saline): 130 % of control [4 of 6 alive]
- T/C (dose: 120.0 mg/kg/injection, schedule: Q01DX Z (ip), vehicle: carboxymethylcellulose (CMC)): 135 % of control [5 of 6 alive]
- survivor count (dose: 224.0 mg/kg/injection, schedule: Q07DX Z (ip), vehicle: methylcellulose (MC)): 3 of 7
- survivor count (dose: 240.0 mg/kg/injection, schedule: Q01DX Z (ip), vehicle: saline): 1 of 6
- survivor count (dose: 448.0 mg/kg/injection, schedule: Q07DX Z (ip), vehicle: methylcellulose (MC)): 1 of 7
- survivor count (dose: 480.0 mg/kg/injection, schedule: Q01DX Z (ip), vehicle: saline): 0 of 6
- survivor count (dose: 960.0 mg/kg/injection, schedule: Q01DX Z (oral), vehicle: methylcellulose (MC)): 4 of 6

SMILES: Nc1cc(Nc2cccc(Cl)c2)nc(N)n1
- survivor count [11]: 0 of 6
- survivor count [10]: 0 of 6

SMILES: CC(=O)N1CCC(Cc2ccccc2)CC1
- survivor count (dose: 150.0 mg/kg/injection, schedule: Q01DX009 (ip), vehicle: saline with Tween-80): 3 of 6
- survivor count [8]: 2 of 6

SMILES: C[n+]1cc(C#N)cc(C#N)c1
- survivor count [12]: 1 of 6

SMILES: CCOC(=O)NNC(=O)CN
- survivor count (dose: 150.0 mg/kg/injection, schedule: Q01DX001 (ip), vehicle: saline): 3 of 6
- survivor count [12]: 0 of 6

SMILES: O=S1(=O)CCCCC1C(O)(c1ccccc1)c1ccccc1 (stereo unspecified)
- survivor count (dose: 100.0 mg/kg/injection, schedule: Q04DX002 (ip), vehicle: saline with Tween-80): 2 of 3
- survivor count (dose: 200.0 mg/kg/injection, schedule: Q04DX002 (ip), vehicle: saline with Tween-80): 0 of 3
- survivor count [7]: 0 of 3

SMILES: CCCCCCC(O)C[N+](=O)[O-] (stereo unspecified)
- survivor count [6]: 0 of 6

SMILES: CC(=O)Nc1cc(Cl)c(Cl)c([N+](=O)[O-])c1
- survivor count (dose: 400.0 mg/kg/injection, schedule: Q01DX009 (ip), vehicle: Klucel (hydroxypropylcellulose) (HPC)): 0 of 6
